# Measurements as given in article PMC4977824.
# By UniProt entry, the sequences of proteins in these tests, tags left out. Where a name states a change or a piece, a line headed by the entry shows the natural chain unless it says otherwise. Residues count along the entry.
# UniProt P17329: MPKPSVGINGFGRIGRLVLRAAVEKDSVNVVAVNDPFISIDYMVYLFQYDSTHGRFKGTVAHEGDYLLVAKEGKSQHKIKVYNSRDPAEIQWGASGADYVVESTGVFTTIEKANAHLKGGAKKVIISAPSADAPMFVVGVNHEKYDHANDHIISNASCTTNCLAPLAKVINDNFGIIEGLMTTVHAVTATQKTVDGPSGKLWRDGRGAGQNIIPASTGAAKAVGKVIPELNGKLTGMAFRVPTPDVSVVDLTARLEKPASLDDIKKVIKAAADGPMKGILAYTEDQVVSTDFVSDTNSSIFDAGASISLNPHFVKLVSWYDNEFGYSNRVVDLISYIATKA
# UniProt D5MCN2: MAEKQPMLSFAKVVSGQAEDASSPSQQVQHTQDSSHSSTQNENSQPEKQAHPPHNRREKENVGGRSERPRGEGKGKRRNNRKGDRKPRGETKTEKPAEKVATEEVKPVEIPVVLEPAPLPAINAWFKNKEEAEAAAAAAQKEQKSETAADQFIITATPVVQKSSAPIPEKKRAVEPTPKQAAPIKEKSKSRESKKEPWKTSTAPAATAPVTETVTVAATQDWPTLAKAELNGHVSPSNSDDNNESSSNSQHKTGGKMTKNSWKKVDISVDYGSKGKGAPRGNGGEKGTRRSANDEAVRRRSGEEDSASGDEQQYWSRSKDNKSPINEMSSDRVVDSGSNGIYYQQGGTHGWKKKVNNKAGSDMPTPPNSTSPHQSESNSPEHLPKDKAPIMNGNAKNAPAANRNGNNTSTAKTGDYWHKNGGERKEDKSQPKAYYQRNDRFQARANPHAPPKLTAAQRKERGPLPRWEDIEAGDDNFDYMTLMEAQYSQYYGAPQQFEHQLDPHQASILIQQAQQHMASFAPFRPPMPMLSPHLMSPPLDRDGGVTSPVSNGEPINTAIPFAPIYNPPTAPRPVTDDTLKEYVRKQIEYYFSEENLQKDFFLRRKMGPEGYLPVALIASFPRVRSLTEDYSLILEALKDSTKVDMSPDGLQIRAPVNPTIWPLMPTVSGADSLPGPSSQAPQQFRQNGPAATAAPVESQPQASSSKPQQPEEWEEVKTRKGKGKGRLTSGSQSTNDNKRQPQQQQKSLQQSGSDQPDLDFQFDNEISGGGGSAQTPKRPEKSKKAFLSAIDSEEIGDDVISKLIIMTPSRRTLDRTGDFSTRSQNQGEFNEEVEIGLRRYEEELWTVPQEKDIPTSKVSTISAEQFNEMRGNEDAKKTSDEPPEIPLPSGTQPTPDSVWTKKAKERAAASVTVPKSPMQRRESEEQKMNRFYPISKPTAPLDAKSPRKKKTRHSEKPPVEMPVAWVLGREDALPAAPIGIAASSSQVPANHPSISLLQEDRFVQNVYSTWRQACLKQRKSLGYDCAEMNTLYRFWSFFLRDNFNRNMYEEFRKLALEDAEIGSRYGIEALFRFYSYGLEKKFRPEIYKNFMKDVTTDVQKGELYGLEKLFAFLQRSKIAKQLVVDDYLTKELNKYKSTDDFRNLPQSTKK
# UniProt P18948, residues 16-1651: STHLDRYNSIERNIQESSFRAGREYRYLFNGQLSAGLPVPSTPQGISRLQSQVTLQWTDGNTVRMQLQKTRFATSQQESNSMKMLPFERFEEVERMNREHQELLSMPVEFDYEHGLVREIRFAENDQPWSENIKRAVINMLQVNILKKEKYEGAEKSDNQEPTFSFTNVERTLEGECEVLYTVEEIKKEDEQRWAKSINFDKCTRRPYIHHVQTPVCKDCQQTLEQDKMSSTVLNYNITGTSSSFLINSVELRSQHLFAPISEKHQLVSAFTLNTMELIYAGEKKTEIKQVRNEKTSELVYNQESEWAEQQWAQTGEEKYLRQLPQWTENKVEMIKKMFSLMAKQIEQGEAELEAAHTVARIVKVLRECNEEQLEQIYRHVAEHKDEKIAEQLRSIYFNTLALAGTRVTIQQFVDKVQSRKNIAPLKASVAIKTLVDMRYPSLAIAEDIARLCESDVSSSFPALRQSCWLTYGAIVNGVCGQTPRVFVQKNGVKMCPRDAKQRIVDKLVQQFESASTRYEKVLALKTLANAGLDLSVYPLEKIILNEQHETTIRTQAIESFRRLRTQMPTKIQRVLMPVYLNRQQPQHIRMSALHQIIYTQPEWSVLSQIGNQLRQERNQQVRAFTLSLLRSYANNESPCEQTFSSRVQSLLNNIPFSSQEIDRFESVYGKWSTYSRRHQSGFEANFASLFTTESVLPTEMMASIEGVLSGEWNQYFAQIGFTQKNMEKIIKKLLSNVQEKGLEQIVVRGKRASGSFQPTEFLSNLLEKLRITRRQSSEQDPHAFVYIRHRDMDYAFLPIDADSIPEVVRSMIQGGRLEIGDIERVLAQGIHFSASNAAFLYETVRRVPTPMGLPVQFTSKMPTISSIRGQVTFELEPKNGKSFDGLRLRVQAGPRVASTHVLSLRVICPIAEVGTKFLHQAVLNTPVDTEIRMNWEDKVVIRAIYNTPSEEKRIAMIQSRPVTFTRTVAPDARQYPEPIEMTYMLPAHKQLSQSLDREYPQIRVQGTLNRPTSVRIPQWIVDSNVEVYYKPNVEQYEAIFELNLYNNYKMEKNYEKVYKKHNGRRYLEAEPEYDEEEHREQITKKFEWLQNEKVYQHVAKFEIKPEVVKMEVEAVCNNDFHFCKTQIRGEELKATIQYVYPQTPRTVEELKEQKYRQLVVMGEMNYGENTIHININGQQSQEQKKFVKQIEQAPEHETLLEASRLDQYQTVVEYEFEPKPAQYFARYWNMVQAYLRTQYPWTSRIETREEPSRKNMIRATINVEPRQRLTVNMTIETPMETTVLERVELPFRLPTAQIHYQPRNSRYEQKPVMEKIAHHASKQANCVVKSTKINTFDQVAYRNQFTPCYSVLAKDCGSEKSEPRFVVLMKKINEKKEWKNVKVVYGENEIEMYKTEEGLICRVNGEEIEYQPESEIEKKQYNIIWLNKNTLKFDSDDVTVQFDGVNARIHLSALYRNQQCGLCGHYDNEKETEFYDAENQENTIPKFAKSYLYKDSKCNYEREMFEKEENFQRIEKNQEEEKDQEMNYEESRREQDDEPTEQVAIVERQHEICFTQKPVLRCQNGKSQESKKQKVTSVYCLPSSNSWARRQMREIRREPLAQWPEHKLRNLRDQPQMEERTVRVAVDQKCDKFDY
# UniProt Q18494: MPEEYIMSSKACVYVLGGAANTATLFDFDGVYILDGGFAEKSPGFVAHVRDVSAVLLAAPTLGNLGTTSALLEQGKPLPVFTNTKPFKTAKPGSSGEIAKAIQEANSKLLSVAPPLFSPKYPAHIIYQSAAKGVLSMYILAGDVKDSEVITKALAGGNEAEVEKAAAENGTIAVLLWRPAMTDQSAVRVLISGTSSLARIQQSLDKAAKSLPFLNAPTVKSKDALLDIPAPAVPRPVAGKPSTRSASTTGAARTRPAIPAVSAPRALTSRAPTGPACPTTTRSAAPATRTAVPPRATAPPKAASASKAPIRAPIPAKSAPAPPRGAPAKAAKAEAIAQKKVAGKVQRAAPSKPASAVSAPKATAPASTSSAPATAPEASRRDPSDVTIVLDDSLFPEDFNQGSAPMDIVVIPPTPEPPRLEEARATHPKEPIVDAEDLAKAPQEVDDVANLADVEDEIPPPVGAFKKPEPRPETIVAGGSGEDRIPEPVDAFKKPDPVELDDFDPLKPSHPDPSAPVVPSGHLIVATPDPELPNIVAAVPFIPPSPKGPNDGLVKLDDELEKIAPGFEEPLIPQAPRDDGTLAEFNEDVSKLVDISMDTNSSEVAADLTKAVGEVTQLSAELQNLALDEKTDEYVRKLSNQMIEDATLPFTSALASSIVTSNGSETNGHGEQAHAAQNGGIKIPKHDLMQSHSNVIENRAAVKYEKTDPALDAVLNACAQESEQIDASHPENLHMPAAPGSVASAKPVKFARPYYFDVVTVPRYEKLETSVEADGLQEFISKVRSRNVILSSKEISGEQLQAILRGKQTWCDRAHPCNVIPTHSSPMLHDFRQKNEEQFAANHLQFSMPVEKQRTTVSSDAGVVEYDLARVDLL
# UniProt Q27371: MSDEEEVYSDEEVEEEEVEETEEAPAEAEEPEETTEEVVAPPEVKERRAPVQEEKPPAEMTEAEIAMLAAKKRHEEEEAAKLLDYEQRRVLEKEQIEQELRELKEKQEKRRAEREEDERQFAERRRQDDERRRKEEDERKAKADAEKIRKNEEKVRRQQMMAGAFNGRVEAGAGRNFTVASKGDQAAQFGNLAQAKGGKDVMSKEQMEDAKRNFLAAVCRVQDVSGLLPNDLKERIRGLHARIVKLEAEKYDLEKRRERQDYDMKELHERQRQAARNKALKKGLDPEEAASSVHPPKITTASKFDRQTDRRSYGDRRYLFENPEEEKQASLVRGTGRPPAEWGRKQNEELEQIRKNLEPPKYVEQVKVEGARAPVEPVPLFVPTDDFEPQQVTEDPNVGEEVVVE
# These are yes or no findings as the source states them, for the method shown. In cells and extracts the contact can be indirect. A yes stands for co-enrichment or nearness to the bait. Other partners may have been found. Where a sequence is shown, tags or fusion partners need not be part of it.
# T1: DLG-1::GTA (DLG-1::GFP-2xTEV-Avi) (C. elegans) (UniProt G5ECY0)
# T1 sequence (chain, biotin on the Avi tag (in vivo, by BirA)): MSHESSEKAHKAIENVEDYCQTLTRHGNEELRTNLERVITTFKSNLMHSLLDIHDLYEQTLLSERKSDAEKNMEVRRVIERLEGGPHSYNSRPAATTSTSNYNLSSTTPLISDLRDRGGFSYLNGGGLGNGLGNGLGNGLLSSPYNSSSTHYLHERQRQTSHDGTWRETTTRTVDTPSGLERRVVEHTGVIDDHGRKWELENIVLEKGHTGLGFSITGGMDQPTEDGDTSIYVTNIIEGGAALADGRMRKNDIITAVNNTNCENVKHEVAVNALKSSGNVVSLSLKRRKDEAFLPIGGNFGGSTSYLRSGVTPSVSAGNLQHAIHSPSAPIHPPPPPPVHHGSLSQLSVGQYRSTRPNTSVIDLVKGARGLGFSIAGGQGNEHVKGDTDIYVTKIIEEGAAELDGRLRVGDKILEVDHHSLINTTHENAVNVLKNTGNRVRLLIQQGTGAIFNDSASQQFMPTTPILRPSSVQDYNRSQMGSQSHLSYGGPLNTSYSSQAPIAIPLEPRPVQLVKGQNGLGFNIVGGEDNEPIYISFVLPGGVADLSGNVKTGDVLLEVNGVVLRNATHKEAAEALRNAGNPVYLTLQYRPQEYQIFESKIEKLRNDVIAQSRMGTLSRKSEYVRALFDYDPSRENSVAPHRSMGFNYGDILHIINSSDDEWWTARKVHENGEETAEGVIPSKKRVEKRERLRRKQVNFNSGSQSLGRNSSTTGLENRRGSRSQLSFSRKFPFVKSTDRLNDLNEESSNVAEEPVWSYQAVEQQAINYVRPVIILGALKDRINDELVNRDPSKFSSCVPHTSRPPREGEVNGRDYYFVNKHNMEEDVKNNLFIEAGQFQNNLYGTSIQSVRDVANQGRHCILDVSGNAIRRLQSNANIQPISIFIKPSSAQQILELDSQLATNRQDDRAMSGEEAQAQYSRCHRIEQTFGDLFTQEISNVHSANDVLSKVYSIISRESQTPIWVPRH
# Target: T1, DLG-1::GTA (DLG-1::GFP-2xTEV-Avi) (C. elegans)
# Test: affinity purification with mass spectrometry; GTA-tagged bait biotinylated in vivo (BirA ubiquitous, intestine, seam/hyp7 or neurons) captured on streptavidin-coated beads from whole-animal lysate (L3/L4; 150 mM NaCl, 20 mM Tris pH 7.8, 5 mM EDTA, 1 % Triton X-100), 1.5 h at 4 °C, released by TEV protease, LC-MS/MS, SAINT scoring against GFP::TEV::Avi controls, triplicates
row,Molecule,binding
1,GPD-2 (from UniProt P17329 1-341),binds
2,LARP-1 (from UniProt D5MCN2 1-1150),binds
3,LEC-2 (C. elegans (endogenous in whole animals)),binds
4,LEC-4 (C. elegans (endogenous in whole animals)),binds
5,VIT-6 (from UniProt P18948 16-1651),binds
6,"IFB-2 (protein, UniProt Q19286 1-543) MSAVSYSMHRTTTTTSSSSHGGVSAGHAAEEFVASAEREKQEMQQLNSRLEVYISRVRQLEDRNKELVIELDTLRGSLGNDIGQIKFKFNDSLVKVRREISEAHSGTIGVEVKVDRLRDDLNDYRHRYEEARREVEREKTTWGGAISQAQAELDTNKSRYAAILDEEKRLYAEQDQLYLQLAAAKDELDAAIVDRRRLQAEEDDLKIELEFLGRIHSQEITELRTLLAQAPADTREFFKNELALAIREIKAEYDKIIQTTRVDLETIFQSKISAVESSIVSKNEAAVFRQEEIRKMNESITTLRAKLSELEARNSALEREANTLQIQLGEDQRAYESELHKRDNALRFMREDCQTLIAELQALLNTKQTLDTEIAIYRKLVESEEGRFTHVGQGVVVAQQETTRLVPVEQDHWDSGEVQTRSSFKRHAKGNVSIVECDPQGKYIILENTSGSVAEDVSNFEIRRVIDGVQAFVFRLPSHLVIQQHGHLKIYGRNSGGINSPPDSIVMESHPSWGQGGQVETFLYNSHGIEKASHIQTTVASSR",binds
7,"MRG-1 (protein, UniProt A7DTF0 1-337) MSSKKNFEVGENVACIYKGKPYDAKITDIKTNSDGKELYCVHFKGWNNRYDEKIPVGEEKDRIFKGTASEYAEKHNAELPTTALKPKKKSLAAEAPRDDRDDTPGTSKGKKAKSVTIAPVMTADDMKVELPKPLRKILIDDYDLVCRYFINIVPHEYSVDQIIEDYIKTIPVSNEQMRTVDDLLIEYEEADIKITNLALICTARGLVDYFNVTLGSSYQLLYKFERPQYNDLVKKRAMEKGIDITNPTALQDSGFRPSQEYGIVHFLRMLAKLPDYLKLTQWNDHVINRIMIGVHDLIVFLNKNHGKYYRGSSDYQGASNDYYRRSLAADDGVGANQ",binds
8,"VARS-2 (protein, UniProt Q9U1Q4 1-1050) MSDPAGNRPKTEKELKKEAEKAAKLAKFEEKQKKLAEKKAAASDKPVKEAKAKKEQTVEAAEPVDQTPTGQRKKIDGEIPAAYFPGYVESGWYSWWEKEGFFKPEYIDKLNPGSNPADSFTVCIPPPNVTGNLHVGHALATTVEDTITRFNRMHGKRTLFNPGCDHAGIATQVVVEKRLKRERGLTRHDLGRDRFNQEVWHWKNEKGDVIYDQFRKLGASVDWDRAVFTMDPKMCRAVTEAFIRMHESGTIYRSNRLVNWSCALRSAISDIEVDKKELTGSTLIAVPGYDKKIEFGVLNSFAYKIQGSDEEIVVSTTRIETMLGDSGVAVHPDDQRYKHLVGKQCIHPFIPTRNLPIFADSFVEMEFGTGAVKITPAHDHNDYEVGIRQNLPFHNCITDDGLISQGCGEFSGMKRFDARTAVIEALKEKGLYRGKEDNPMVVPTCSRSKDVIEPILKPQWYVKCAHMAEKAVAAVANGDLQIIPEFHKATWNRWLESSRDWCISRQLWWGHRIPAYYISFADGREQPLPEENYWVSARTEQEALAKAAQKFQVPEAEILLKWDEDVLDTWFSSGMWPFAVFGWPDATKDMDLFFPGAVLETGHDILFFWVARMVFMAQELTGKLPFKEILLHAMIRDAHGRKMSKSLGNVIDPLDVIRGISLNDLQAQLLGGNLDEKEIAVAKEGQARDYPDGIPECGVDALRFALLSYTSQGRDINLDVLRVHGYRKFCNKLWQVVRFALARISDKPEQKPTFEINLKSATPTDLWILSRLAKAVKETNEALKAYNFTQATTVTYNFWLYDFCDVYVETIKPVLYGDNTTLRQVAISVLHKCIDTGLRLISPLMPFISEELWQRMPRLDDSDYTSPSIIVAQYPLTQKYEKYQNEKLEAAFEFAQELIGKVRSLRADYDLKKTKITMQILSETPEDESMLNDISAVITTLTFSEKVSILNKCESDKIEKGSAHIACGGRCQVYINLTGIIDVPKEIEKLGAKLQKNQISVKKIGDIQSSADYEQKVPVDIRALDQEKKATLEKEIENITAAIAQLKALN",binds

# The next lines start with the values.
row,binding,Molecule
1,binds,ATN-1 (C. elegans (endogenous in whole animals))
2,binds,EPS-8 (C. elegans (endogenous in whole animals))
3,binds,MAPH-1.3 (from UniProt Q18494)
4,binds,MUP-2 (from UniProt Q27371 1-405)
5,binds,"IFC-2 (protein, UniProt Q21067 1-622) MSTYAAYTTSTYQGRGLASGTYASGFGQLVSGMSSAGAICTTQIRDAREREKREIGLLNDRLADYIEKVRFLEAQNRCLSHDIDILRNGFSGGGHVSGLFDAEINQAKHILEQTTAHRSTFERDITGLSAEIEVFRKKWLDAVNAVKAHREDHDVDLDRLAKIEAEISLFKRKIRIVEEDVIRIRRENDGIYNEIARIKQLTHNEIALKNERSLNVSDLLQRINLLQTENNVRIEQELVFIRRDTTADNRDYFRHELQAAIRDIRADYEAISIRNRQDIEVWYREQIRKIQDESVRVNPDLYKEELISIRTTVTNVRSRLAEVEGRNFFLERLIDDLKNNEEAKFFEISLAERDAQIATLRDQCTELSIQMEKLCDNEISLRAEIERYRILLNGANVTTYTSNTHGSGSGIAVGGVVGGSTRVISQTTRTHSSSNTSYSNVPASRGGYSISGNVGGISVGGTIGSHGASAHATGGIIGSGVQAHRGSVSSLITDKPRDRVHDEKGVDQSGRHFHSWYLGTISINQVTPSYIELKNICKIRRVDVGGFRIEQSVNGQVLGSAQINVPLILDPQEVVRFNHRHGKYLGQFFMDVDAFDNSTVARTSMYNYTEPHEERAWFVYLD"
6,binds,"NMT-1 (protein, UniProt P46548 1-450) MSHGHSHDGAPCGGHHGDDGAGGSRPSVNDVQALVDQLRLAGVDVSNMPNIPTAPRDMDEARSKSFQFWSTQPVPQMDETVPADVNCAIEENIALDKVRAEPFSLPAGFRWSNVDLSDEEQLNELYNLLTRNYVEDDDSMFRFDYSADFLKWALQVPGFRPEWHCGVRADSNNRLLAFIGAVPQTVRVYDKTVNMVEINFLCVHKNLRSRRVAPVLIREITRRVNVTGIFQAAFTAGIVIPKPVSVCRYYHRSLNPRKLIDVRFSHLSAKMTMARTIKLYKLPEETATRNLREMKSTDVPQVFKLLTTSLKQYSLAPVYNSEEELAHALVPKKGVVYSYVAENQNGKITDFVSFYSLPSTVMGHTTHKTIYAAYLYYYVAGSVTPKQLINDSLILANREKFDVFNALDLMHNEKIFSDLKFGKGDGNLQYYLYNWKCADMKPSQIGLVLQ"
7,binds,"DIM-1 (protein, UniProt Q18066 1-640) MASLAPFFKISDSILADESFDDLEINNHFKCTSKDLNEYPRTSTPLPGEITSIYSLPRSYNNQNLCTRSKPTTFISQNQQKGMTEKPKHSEYFLRLMKTRQEMQKKLTAKNGSNKSVQQYLRKLPPSTSKEVTIIPVKMKPDDNSVYISKELSDRTDTKLPKVSTKEVEKFGEQSDDEERHERSHIASDFNQKTPQSTHATSNHRKRIFIGRTGAKQQHVSKKATESELPYNIDVSTSNTTNATEALKLLKRPLLLPSKDPRSSKMPRLDLNQHQFRCKQYIVHSQFTCTQIEKTFKCRVGTSTESEDLDDYYFDAMPDGKAPHFPQQPVARQNDDGSLELECFVDANPTPQVKWYYDNKEVENSGRFSANLANKGSDSYSAILTIKELADADAGAYRCAIVNPHGKGNANFNLKLTGFSSPTFVEKPQISSRDDGQVMVMEFRAKSILEPTFVWQKLVGGGAEEIIANSDRIKAVKKLEAGNVYYSALEIKEPTKDKDAGQFICTVKNESGKLTATFTVKFEVPEGAPSFTRKPQILQQTSAGGEPAICFDIGYSARMNPQVTWISPKSKKMKESSRIKFKTNDEGNGNFTAQLELTNYKAKDSGTYTCNIKNDAGEANVELTLNIEGPLDDYADDSEN"
8,binds,"UNC-87 (protein, UniProt P37806 1-565) MLSFNNTTSASSFQSASSRYLMSSSSSIGPPQQQSAKLFPEHFYPSGLSPRQSEALERLRPNTASRERNIPIQFTGKNPTTNSALEEYKPVPHVQVTSPKSSIVPNFVSEQRGLQPQPTSQAPTNYRQFVAAPRSPRGYGDYPEMTGKASAAGDSEPVQIPIKTQTPITQARAQETKIPTIVSPHPVYYYDNQEQPIQQIREEQPNATMETKVTGQGQPKRVGRWTLAQLRQTDGIIPSQAGWNKGDSQKLMTNFGTPRNTNTRVKSENLQEIPEDIANRTHGEVRLQSGTNKYCSQRGMTGFGSGRDVCREGVRVAQNPADLAELPEEKIRMSEGIVRLQAGTNKYDSQKGMTGFGTGRRETTKMVDSKHPEYDHEKPDQSEIPLQSGTNKFASQKGMTGFGTARRETTKMVDSNHPDYSHECSIDQTTIPSQMGSNQYASQKGMTGFGQPRWEVLDPSISWQNRKSQGMVRLQSGTNRFASQAGMIGFGTCRNTTFEAEGGELPYEAMKVSETIIPSQAGWNKGDSQKKMTSFGAPRDVKGKHLKRIWELEYPEEAEISLDRL"
